Measurements reported in PubChem BioAssay AID1259254 (NCATS, 2017).
Here is an unselected part of about 59,000 reagents tested. Of all reagents, about 1,550 (2.6%) are marked active. 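G2 share is only a proxy for re-replication; each gene was hit by three separate siRNAs, and active genes were retested.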 The numbers tell different reagents against one gene apart. Not all columns of the deposit are shown. Reagent sequences are not shown. Not stated in the record: the amount of reagent.

Aim: 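Gene knock-downs that lead to re-replication, shown by excess G2 DNA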 (primary screen)
System: human HCT116 colorectal cancer cells
Reagents: single siRNA against human genes
Time to read-out: 3 days
Measurement: 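Imaged Hoechst DNA stain sorts each cell into a cycle phase by DNA amount; per plate, G2 fraction set to 0% for non-targeting and 100% for GMNN siRNA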
Scale: G2 robust z-score: higher = more G2 cells, more excess DNA replication
Call rule: 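An siRNA counts as active if its G2 robust z-score lies at least 5 MADs above the screen median; here such calls match roughly 38% of GMNN control or more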

G2 robust z-score, by gene and reagent
ITGAV (GeneID 3685): #1 11.7 active; #2 12.5 active; #3 8.64 active
ODAD3 (GeneID 115948): #1 -0.902 inactive; #2 -1.24 inactive; #3 1.07 inactive
LINC00303 (GeneID 284573): #1 0.0136 inactive; #2 0.294 inactive; #3 2.77 inactive
ACSM5 (GeneID 54988): #1 0.709 inactive; #2 -0.569 inactive; #3 -0.548 inactive
MIPEPP3 (GeneID 650794): #1 -0.361 inactive; #2 0.905 inactive; #3 -0.295 inactive
BIN2 (GeneID 51411): #1 -0.875 inactive; #2 0.687 inactive; #3 0.609 inactive
PKP3 (GeneID 11187): #1 -0.896 inactive; #2 2.91 inactive; #3 -1.16 inactive
FAM53B (GeneID 9679): #1 -0.886 inactive; #2 0.0206 inactive; #3 6.85 active
TMEM167B (GeneID 56900): #1 3.7 inactive; #2 0.396 inactive; #3 1.51 inactive
UBE2N (GeneID 7334): #1 3.28 inactive; #2 0.712 inactive; #3 -0.469 inactive
LBX1 (GeneID 10660): #1 3.36 inactive; #2 -0.0877 inactive; #3 1.2 inactive
BKGD (GeneID 28970): #1 -1.31 inactive; #2 -0.696 inactive; #3 -0.248 inactive
CCDC186 (GeneID 55088): #1 0.102 inactive; #2 3.04 inactive; #3 -0.508 inactive
C17orf78 (GeneID 284099): #1 1.13 inactive; #2 0.566 inactive; #3 -0.6 inactive
MTCL3 (GeneID 387104): #1 -0.433 inactive; #2 -0.956 inactive; #3 -0.329 inactive
CNDP2 (GeneID 55748): #1 5.84 active; #2 -1.57 inactive; #3 -0.481 inactive

Reprinted from above (6 entries):
G2 robust z-score, by gene and reagent
FAM53B (GeneID 9679): #3 6.85 active
TMEM167B (GeneID 56900): #1 3.7 inactive; #2 0.396 inactive; #3 1.51 inactive
UBE2N (GeneID 7334): #1 3.28 inactive; #2 0.712 inactive
